# Source: patent US10513547B2, “Peptides and combination of peptides and scaffolds thereof for use in immunotherapy against colorectal carcinoma (CRC) and other cancers” (Immatics Biotechnologies GmbH, priority 2015, dated 2019)
# Test system: HLA molecules from shock-frozen tissue samples (CRC, other tumors, normal tissues)
# Test: Identification and label-free relative LC-MS quantitation of HLA-presented tumor associated peptides (presentation profiles, XPRESIDENT)
# Design: species or system human; key to Peptide Presentation (presentation score): very highly over-presented on tumors compared to a panel of normal tissues (+++); highly over-presented on tumors compared to a panel of normal tissues (++); over-presented on tumors compared to a panel of normal tissues (+)
# Conditions: additional tumor types: over-presented on more than 5% of measured tumor samples, or presented on more than 5% with ratio of geometric means tumor vs normal larger than 3
row,Substance,Other relevant organs/diseases
1,173 (KLGDLMVLL; listed as Homo sapiens) [compound 173],Leukocytes
2,88 (KLDIKVETV; listed as Homo sapiens) [compound 88],"Lung, Kidney, Liver, Melanoma, Ovary, Esophagus"
3,229 (YLLEKFVAV; listed as Homo sapiens) [compound 229],"Lung, Liver, Ovary"
4,146 (ALSDETWGL; listed as Homo sapiens) [compound 146],"Kidney, Stomach, Pancreas, Breast, Ovary"
5,193 (KLSPTVVGL; listed as Homo sapiens) [compound 193],"Liver, Ovary"
6,194 (SLYKGLLSV; listed as Homo sapiens) [compound 194],"Lung, Kidney, Brain, Liver, Ovary, Esophagus"
7,137 (QLTEIKPLL; listed as Homo sapiens) [compound 137],"Brain, Ovary"
8,231 (RLFADILNDV; listed as Homo sapiens) [compound 231],"Lung, Brain, Liver, Prostate, MCC, Ovary"
9,236 (KMSELQTYV; listed as Homo sapiens) [compound 236],"Lung, Pancreas, Melanoma, Ovary, Esophagus"
10,235 (LLHEENFSV; listed as Homo sapiens) [compound 235],"Lung, Kidney, Liver, Ovary, Esophagus"
11,91 (TVDVATPSV; listed as Homo sapiens) [compound 91],"Breast, Ovary"
12,72 (YLLDYPNNLL; listed as Homo sapiens) [compound 72],"Lung, Kidney, Brain, Liver, Leukocytes, Breast, Ovary, Esophagus"
13,204 (KLLDLETERILL; listed as Homo sapiens) [compound 204],"Lung, Liver, Prostate, Ovary"
14,31 (LLYGKYVSV; listed as Homo sapiens) [compound 31],"Lung, Kidney, Brain, Liver, Leukocytes, Ovary, Esophagus"
15,48 (FLDASDPAL; listed as Homo sapiens) [compound 48],"Kidney, Prostate"
16,224 (QLQEGKNVIGL; listed as Homo sapiens) [compound 224],Pancreas
17,54 (ALLNGEYLLAA; listed as Homo sapiens) [compound 54],"Liver, Ovary, Esophagus"
18,177 (ALLQGAIESV; listed as Homo sapiens) [compound 177],"Melanoma, Ovary, Esophagus"
19,191 (QLFSEIHNL; listed as Homo sapiens) [compound 191],"Brain, Liver"
20,265 (LLDKKIGV; listed as Homo sapiens) [compound 265],"Kidney, Ovary, Esophagus"
21,256 (GLLEELVTV; listed as Homo sapiens) [compound 256],"Lung, Stomach, Pancreas, Ovary"
22,221: peptide found in ACLY (gene looked up) (ILNVDGLIGV; listed as Homo sapiens) [compound 221],"Kidney, Brain, Liver, Prostate, Leukocytes"
23,76 (YLIGEKQHYL; listed as Homo sapiens) [compound 76],Liver

# Same assay, conditions: all samples with detectable presentation, all tumor types
row,Substance,number of cancer tissues with detectable presentation of the peptide
1,SEQ ID NO.: 22 (GLIDEVMVL; listed as Homo sapiens),6
2,SEQ ID NO.: 142 (SLVQRVETI; listed as Homo sapiens),47
3,SEQ ID NO.: 23 (FLDANGHFV; listed as Homo sapiens),12

# Same assay, conditions: normal tissue panel as in FIG. 1A-C
row,Substance,number of normal tissues with detectable presentation of the peptide
1,SEQ ID NO.: 22 (GLIDEVMVL; listed as Homo sapiens),1
2,SEQ ID NO.: 23 (FLDANGHFV; listed as Homo sapiens),3

# Same assay, conditions: over-presentation on more than 5% of the measured tumor samples, or presentation on more than 5% of the measured tumor samples with ratio of geometric means tumor vs normal tissues larger than 3
row,Substance,Additional Entities (additional tumor types on which the peptide was found)
1,173 (KLGDLMVLL; listed as Homo sapiens) [compound 173],"Melanoma, AML, NHL"
2,88 (KLDIKVETV; listed as Homo sapiens) [compound 88],"BRCA, Urinary bladder cancer"
3,42 (SILDDSFKL; listed as Homo sapiens) [compound 42],"Gallbladder Cancer, Bile Duct Cancer"
4,146 (ALSDETWGL; listed as Homo sapiens) [compound 146],"SCLC, CLL, Esophageal Cancer, Urinary bladder cancer, Uterine Cancer, Gallbladder Cancer, Bile Duct Cancer"
5,137 (QLTEIKPLL; listed as Homo sapiens) [compound 137],"CLL, Urinary bladder cancer, Uterine Cancer, Gallbladder Cancer, Bile Duct Cancer, AML, NHL"
6,113 (ILYDLQQNL; listed as Homo sapiens) [compound 113],"SCLC, CLL, BRCA, Melanoma, Urinary bladder cancer, Uterine Cancer, Gallbladder Cancer, Bile Duct Cancer, AML, NHL"
7,91 (TVDVATPSV; listed as Homo sapiens) [compound 91],CLL
8,28 (ALTEIQEFI; listed as Homo sapiens) [compound 28],"NSCLC, Brain Cancer, HCC, BRCA, Melanoma, Esophageal Cancer, Urinary bladder cancer, Gallbladder Cancer, Bile Duct Cancer, AML, NHL"
9,31 (LLYGKYVSV; listed as Homo sapiens) [compound 31],"SCLC, Melanoma, Urinary bladder cancer, Uterine Cancer"
10,54 (ALLNGEYLLAA; listed as Homo sapiens) [compound 54],"NSCLC, Brain Cancer, GC, BRCA, Melanoma, Urinary bladder cancer, Uterine Cancer, Gallbladder Cancer, Bile Duct Cancer, AML, NHL"
11,177 (ALLQGAIESV; listed as Homo sapiens) [compound 177],"SCLC, GC, Urinary bladder cancer, Gallbladder Cancer, Bile Duct Cancer"
12,191 (QLFSEIHNL; listed as Homo sapiens) [compound 191],"SCLC, Melanoma, Urinary bladder cancer, Gallbladder Cancer, Bile Duct Cancer, AML, NHL, PC"

# Same assay, conditions: over-presentation on tumors compared to a panel of normal tissues
row,Substance,Peptide Presentation (presentation score)
1,173 (KLGDLMVLL; listed as Homo sapiens) [compound 173],+
2,88 (KLDIKVETV; listed as Homo sapiens) [compound 88],+
3,229 (YLLEKFVAV; listed as Homo sapiens) [compound 229],++
4,5 (WLFDDGGLTL; listed as Homo sapiens) [compound 5],+++
5,42 (SILDDSFKL; listed as Homo sapiens) [compound 42],+++
6,146 (ALSDETWGL; listed as Homo sapiens) [compound 146],+
7,39 (GLNGGSPAAA; listed as Homo sapiens) [compound 39],+++
8,193 (KLSPTVVGL; listed as Homo sapiens) [compound 193],+++
9,194 (SLYKGLLSV; listed as Homo sapiens) [compound 194],+++
10,137 (QLTEIKPLL; listed as Homo sapiens) [compound 137],+++
11,231 (RLFADILNDV; listed as Homo sapiens) [compound 231],+++
12,236 (KMSELQTYV; listed as Homo sapiens) [compound 236],+
13,235 (LLHEENFSV; listed as Homo sapiens) [compound 235],++
14,113 (ILYDLQQNL; listed as Homo sapiens) [compound 113],+
15,72 (YLLDYPNNLL; listed as Homo sapiens) [compound 72],++
16,204 (KLLDLETERILL; listed as Homo sapiens) [compound 204],++
17,31 (LLYGKYVSV; listed as Homo sapiens) [compound 31],+++
18,48 (FLDASDPAL; listed as Homo sapiens) [compound 48],+++
19,224 (QLQEGKNVIGL; listed as Homo sapiens) [compound 224],+++
20,54 (ALLNGEYLLAA; listed as Homo sapiens) [compound 54],+
21,177 (ALLQGAIESV; listed as Homo sapiens) [compound 177],+
22,221: peptide found in ACLY (gene looked up) (ILNVDGLIGV; listed as Homo sapiens) [compound 221],+
